These are yes or no findings as the source states them, for the method shown. Binding seen in cells or lysates may run through a third protein. Some entries that bind do so weakly or less than the wild type. Sequences can lack the tags named with a protein.
Molecular target: T1, ER degradation-enhancing α-mannosidase-like protein 1 (EDEM1), HA-tagged (mouse) (UniProt Q925U4)
T1 sequence: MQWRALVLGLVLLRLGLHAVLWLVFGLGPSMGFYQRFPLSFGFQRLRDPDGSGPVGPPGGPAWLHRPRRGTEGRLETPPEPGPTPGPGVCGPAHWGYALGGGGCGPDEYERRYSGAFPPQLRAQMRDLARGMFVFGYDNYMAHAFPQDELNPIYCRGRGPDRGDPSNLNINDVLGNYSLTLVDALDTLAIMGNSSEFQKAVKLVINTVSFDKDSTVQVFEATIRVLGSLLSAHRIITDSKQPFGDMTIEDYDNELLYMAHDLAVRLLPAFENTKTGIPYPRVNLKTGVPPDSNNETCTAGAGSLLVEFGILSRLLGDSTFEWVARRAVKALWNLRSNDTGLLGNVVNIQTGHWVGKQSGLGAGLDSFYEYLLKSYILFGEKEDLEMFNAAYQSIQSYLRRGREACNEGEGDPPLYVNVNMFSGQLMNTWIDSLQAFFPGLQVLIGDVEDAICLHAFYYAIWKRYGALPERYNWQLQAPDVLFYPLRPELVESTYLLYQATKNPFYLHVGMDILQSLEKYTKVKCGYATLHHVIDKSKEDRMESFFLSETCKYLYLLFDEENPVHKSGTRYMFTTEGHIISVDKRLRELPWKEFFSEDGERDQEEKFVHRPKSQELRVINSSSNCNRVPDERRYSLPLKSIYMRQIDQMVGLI
Test: co-IP; HEK293 cells cotransfected with APP695 and EDEM1-HA, lysed 72 h after transfection (0.1 M NaCl, 10 mM Na2HPO4, 1 mM EDTA, 1% Triton X-100, pH 7.4), sonicated; precipitated 1 h at 4 °C on protein G Dynabeads (anti-HA beads and APP blot by the legend of Figure 9; anti-APP beads and anti-HA blot by the methods); washed 3 times with HBS pH 6.8, 0.1% Tween 20

binding: binds
Substance: amyloid-β precursor protein, isoform APP695 (from UniProt P05067-4 18-695)

— paper PMC8745108
